Assay [1] addresses T1, HA-tagged C3aR (C3a receptor) (UniProt Q16581).
T1 sequence: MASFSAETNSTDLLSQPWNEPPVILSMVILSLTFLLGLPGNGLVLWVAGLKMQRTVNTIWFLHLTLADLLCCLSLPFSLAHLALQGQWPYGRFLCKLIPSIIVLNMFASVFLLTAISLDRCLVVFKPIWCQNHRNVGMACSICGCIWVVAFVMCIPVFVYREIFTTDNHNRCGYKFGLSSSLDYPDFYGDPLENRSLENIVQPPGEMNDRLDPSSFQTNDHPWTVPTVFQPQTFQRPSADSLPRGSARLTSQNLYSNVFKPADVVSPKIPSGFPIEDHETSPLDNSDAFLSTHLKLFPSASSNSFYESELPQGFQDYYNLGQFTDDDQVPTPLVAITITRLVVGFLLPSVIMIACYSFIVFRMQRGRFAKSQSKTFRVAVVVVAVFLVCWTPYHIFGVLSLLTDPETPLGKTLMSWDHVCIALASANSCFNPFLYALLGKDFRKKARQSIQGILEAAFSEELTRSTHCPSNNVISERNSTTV
As to the kind of experiment: co-IP; HEK293 cells transiently co-transfected with HA-tagged receptor (4 µg cDNA) and Flag-tagged NHERF (2 µg); cells exposed to buffer or C3a (100 nM, 37°C, 5 min); lysate immunoprecipitated with anti-HA agarose beads, 4°C, 4 h; washed twice in RIPA lysis buffer and once in ice-cold PBS; blot probed with anti-Flag (M2).

Sequences of proteins named here, by UniProt entry; tags and fusion partners are left off.
UniProt Q15599: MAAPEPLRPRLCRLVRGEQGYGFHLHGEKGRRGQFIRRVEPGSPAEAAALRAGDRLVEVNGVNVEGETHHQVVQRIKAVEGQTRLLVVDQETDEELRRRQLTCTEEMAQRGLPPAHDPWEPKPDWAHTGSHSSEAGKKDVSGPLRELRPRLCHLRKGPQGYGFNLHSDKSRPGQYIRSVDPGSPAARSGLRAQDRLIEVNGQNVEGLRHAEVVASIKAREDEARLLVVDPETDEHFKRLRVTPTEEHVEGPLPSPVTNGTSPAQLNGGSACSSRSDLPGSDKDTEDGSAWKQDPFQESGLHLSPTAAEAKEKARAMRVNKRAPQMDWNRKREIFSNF

Assay [2] deals with HA-tagged β2 adrenergic receptor (UniProt P07550). The assay is described as above.

These are yes or no findings as the source states them, for the method shown. In cells and extracts the contact can be indirect. Some binding calls cover weakened binding; strength is not graded here. For some assays here: Where a sequence is shown, tags or fusion partners need not be part of it.

Consider “Flag-tagged NHERF2 (Na+/H+ exchanger regulatory factor-2) (from UniProt Q15599 1-337)”, for which the binding result in assay [1] is reported as “no binding”; in assay [2], “binds”.

Values taken from publication PMC3527443.
